The experiment deals with pre-S1 peptide containing amino acid 25-38 (…) (hepatitis B virus). Put plainly: relative affinities of synthetic pre-S1 oligopeptides to the antibody.

Results are given in words; binding and its absence hold for the method and conditions named. Some results given as binding are weak or reduced against the parent protein; the word gives no strength.

B1: pre-S1 monoclonal antibody (antibody, V domains shown)
VH: DVQLQESGPGLVKPSQSLSLTCTVTGYSITSDYAWNWIRQFPGNKLEWMGYIRYSGTTNYNPSLKSRISITRDTSKNQFFLQLNSVTTEDTATYYCARGGTGLTYWGQGTLVTVSA
VL: NIVMTQSPKSMSMSLGERVTLTCKASENVGTYVSWYQQKPEQSPKLLIYGASNRNTGVPDRFTGSGPATDFTLTISSVQAEDLADYLCGQTYNYPFTFGAGTKLELK
On to B1, for which the binding entry was “binds”.

Source of the values: patent publication US20230018242A1.
